No constants are given. Whether binding was seen depends on the method and setting. In cells and extracts the contact can be indirect. Some binding calls cover weakened binding; strength is not graded here.
Molecular target: 2xHA-FKBP12(F36V)-tagged DIS3L (mouse (endogenous in mESCs)) (UniProt Q8C0S1)
Assay: co-IP; anti-HA antibody on Protein-G Dynabeads from lysate of Dis3l-2xHA-FKBP12(F36V) / Skiv2l-3xFLAG-Avi mESCs (cMB510); 10 mM Tris-HCl pH 7.4, 150 mM NaCl, 2.5 mM MgCl2, 0.5% NP-40; 4°C; western blot with anti-HA, anti-Flag, anti-Mtr4

The chains behind the UniProt entries cited, without tags or fusion partners. Where a name states a change or a piece, a line headed by the entry shows the natural chain unless it says otherwise.
UniProt Q8C0S1: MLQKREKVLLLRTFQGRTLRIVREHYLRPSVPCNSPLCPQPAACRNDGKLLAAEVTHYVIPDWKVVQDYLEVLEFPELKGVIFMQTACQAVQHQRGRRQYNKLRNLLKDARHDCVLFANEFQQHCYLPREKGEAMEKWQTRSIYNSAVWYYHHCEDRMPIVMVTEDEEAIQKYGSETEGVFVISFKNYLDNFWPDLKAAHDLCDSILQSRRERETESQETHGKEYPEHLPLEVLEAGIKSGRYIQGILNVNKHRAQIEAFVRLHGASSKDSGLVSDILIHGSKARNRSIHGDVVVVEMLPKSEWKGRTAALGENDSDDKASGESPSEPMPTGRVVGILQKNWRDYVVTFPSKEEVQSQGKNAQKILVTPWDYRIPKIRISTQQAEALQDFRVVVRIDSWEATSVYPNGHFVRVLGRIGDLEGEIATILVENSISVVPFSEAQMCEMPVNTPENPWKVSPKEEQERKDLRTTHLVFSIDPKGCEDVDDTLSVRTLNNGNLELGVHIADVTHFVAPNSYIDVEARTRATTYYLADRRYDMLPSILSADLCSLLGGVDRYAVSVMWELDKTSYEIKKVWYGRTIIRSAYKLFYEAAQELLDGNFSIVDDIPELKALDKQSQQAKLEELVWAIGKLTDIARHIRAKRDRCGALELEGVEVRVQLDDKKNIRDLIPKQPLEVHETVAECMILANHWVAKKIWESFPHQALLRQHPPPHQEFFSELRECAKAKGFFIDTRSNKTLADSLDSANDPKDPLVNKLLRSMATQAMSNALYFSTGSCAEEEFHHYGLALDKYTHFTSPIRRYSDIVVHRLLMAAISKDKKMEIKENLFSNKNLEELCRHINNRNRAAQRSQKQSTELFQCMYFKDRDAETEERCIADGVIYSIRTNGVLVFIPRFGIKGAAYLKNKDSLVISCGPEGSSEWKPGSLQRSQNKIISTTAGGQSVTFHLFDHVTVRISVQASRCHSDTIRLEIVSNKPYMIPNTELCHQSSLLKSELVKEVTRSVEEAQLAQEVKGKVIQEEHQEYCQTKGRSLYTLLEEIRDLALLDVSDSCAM
UniProt Q6NZR5: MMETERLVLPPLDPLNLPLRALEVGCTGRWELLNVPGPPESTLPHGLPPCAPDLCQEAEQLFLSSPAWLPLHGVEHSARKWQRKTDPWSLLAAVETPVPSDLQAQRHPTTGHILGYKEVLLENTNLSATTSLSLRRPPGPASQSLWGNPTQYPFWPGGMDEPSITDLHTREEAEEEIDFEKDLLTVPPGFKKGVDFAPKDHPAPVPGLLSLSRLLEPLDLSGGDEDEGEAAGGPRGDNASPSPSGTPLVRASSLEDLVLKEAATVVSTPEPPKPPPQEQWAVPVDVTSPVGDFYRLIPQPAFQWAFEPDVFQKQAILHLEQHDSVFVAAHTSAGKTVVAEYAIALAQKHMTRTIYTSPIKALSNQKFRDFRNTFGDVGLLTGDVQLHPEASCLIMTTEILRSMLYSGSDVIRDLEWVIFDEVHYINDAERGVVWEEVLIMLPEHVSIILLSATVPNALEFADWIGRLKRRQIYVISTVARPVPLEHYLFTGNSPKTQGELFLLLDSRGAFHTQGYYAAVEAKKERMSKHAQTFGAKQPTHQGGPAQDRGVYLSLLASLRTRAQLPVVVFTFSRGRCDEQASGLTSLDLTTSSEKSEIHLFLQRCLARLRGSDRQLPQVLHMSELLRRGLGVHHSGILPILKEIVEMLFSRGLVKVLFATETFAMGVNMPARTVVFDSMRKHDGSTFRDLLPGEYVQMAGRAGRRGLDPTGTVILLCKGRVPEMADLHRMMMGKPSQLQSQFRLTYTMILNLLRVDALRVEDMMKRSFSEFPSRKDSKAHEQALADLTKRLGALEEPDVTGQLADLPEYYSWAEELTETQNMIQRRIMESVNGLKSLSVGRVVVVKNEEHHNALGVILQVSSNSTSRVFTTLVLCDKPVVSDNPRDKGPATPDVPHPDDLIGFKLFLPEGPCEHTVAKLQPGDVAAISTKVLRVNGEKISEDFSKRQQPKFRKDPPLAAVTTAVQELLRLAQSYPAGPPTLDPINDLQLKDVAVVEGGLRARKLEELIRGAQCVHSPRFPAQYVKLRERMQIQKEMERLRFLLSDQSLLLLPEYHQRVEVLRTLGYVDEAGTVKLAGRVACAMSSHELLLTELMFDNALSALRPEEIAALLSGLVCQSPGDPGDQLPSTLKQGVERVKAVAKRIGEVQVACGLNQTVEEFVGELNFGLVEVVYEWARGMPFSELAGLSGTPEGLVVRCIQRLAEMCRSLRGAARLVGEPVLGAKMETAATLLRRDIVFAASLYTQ

binding: binds
Substance: 3xFLAG-Avi-tagged SKIV2L (from UniProt Q6NZR5 1-1244) (enzyme)

From PMC7083229
